From patent US9156809B2, “Carboxy ester ketals, methods of manufacture, and uses thereof” (SEGETIS, INC., priority 2012, dated 2015)

Tests used:
[1] = Minimum film forming temperature (MFFT) of latex coating formulation; settings: UCAR 379G
[2] = as above; settings: UCAR 625

| Compound | MFFT ([1]; coalescent loading 1% (wt. %)) [°C] | MFFT ([1]; coalescent loading 2% (wt. %)) [°C] | MFFT ([2]; coalescent loading 1% (wt. %)) [°C] | MFFT ([2]; coalescent loading 2% (wt. %)) [°C] |
| --- | --- | --- | --- | --- |
| 2,2,4-trimethyl-1,3-pentanediol monoisobutyrate [TPM] | 6.0 | 2.8 | – | – |
| CCOC(=O)CCC1(C)OCC(C)O1 (centres unmarked) [EtLPK, ethyl levulinate propylene glycol ketal] | 4.4 | 1.6 | 4.3 | 0.9 |
| CC(C)OC(=O)CCC1(C)OCC(C)O1 (centres unmarked) [iPrLPK, isopropyl levulinate propylene glycol ketal] | 5.1 | 2.2 | 4.1 | 0.9 |
| CCCCC(CC)COC(=O)CCC1(C)OCC(C)O1 (centres unmarked) [2EH-LPK, 2-ethylhexyl levulinate propylene glycol ketal] | 5.6 | 2.2 | 4.3 | 1.3 |
